Data reported in publication PMC11024517.
No constants are given. Whether binding was seen depends on the method and setting. Binding seen in cells or lysates may run through a third protein. Some entries that bind do so weakly or less than the wild type. For part of these data: Tags and fused reporters may be left off the sequences shown.

Columns and labels:
Settings in all cases: remark: other sources report otherwise
[1] = target: T1, 53BP1 (immunoprecipitates of unstressed cells), Q12888; assay: co-IP; follow-up immunoprecipitation assays in unstressed cells
T1 chain: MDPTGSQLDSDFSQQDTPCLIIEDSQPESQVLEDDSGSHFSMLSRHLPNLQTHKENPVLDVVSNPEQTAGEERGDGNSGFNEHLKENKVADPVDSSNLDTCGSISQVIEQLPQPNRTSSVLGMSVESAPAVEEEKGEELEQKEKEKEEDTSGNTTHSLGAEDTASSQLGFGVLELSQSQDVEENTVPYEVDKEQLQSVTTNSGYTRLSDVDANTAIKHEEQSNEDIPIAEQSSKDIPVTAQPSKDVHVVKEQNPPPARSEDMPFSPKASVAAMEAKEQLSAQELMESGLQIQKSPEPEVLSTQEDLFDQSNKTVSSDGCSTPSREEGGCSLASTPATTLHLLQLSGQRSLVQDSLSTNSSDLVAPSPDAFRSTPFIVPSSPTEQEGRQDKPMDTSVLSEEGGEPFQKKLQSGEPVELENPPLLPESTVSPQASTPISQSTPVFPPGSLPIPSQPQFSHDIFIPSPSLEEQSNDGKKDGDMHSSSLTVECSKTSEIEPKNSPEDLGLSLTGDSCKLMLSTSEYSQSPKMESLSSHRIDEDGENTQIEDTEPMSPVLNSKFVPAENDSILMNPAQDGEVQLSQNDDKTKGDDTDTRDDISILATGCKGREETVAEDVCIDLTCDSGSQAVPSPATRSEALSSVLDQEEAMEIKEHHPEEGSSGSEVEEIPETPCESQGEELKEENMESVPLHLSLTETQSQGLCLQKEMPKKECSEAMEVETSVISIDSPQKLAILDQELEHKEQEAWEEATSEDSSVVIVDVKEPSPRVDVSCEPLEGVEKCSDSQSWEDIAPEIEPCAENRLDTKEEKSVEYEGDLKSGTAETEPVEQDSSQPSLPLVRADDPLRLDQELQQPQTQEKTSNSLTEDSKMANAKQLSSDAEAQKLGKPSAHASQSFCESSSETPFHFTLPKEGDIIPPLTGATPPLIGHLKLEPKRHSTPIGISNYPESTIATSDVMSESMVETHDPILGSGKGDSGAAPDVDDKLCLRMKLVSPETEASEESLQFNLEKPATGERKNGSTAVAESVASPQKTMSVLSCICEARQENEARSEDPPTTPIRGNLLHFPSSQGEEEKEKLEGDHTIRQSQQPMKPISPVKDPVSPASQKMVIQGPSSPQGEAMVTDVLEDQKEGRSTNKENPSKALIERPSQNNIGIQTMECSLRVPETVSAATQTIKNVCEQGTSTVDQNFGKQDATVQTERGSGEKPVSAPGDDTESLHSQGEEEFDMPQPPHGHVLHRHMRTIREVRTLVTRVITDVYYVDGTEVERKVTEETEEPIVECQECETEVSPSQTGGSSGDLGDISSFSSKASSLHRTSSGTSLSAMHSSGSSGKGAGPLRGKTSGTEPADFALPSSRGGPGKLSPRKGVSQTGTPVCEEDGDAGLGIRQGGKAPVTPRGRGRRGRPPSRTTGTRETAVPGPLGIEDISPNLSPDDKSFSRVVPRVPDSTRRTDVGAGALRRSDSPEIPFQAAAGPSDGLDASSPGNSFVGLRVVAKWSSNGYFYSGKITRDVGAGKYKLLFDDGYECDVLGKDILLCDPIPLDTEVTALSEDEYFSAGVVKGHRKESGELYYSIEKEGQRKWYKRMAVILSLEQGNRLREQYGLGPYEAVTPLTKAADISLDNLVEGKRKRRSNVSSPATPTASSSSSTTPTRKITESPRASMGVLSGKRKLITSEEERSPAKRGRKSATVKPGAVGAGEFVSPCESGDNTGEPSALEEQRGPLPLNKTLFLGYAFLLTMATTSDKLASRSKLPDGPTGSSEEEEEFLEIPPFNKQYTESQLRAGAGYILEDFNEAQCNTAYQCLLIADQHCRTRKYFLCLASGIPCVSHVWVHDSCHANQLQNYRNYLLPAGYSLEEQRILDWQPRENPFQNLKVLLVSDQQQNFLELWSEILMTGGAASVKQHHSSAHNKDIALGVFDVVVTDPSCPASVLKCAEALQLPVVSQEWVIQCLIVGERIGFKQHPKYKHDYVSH

[2] = target: T2, 53BP1 (human (endogenous in HLF)), Q12888; assay: co-IP; immunoprecipitation with antibodies against 53BP1 or control IgG from HLF cells expressing wildtype (WT) or monomeric (M) USP28
T2 chain: T1 chain

[3] = target: T2, 53BP1 (human (endogenous in HLF)), …; assay: proximity ligation; PLA with antibodies against 53BP1 and HA-tag in HLF USP28-KO/WT/M cells, treated with DMSO or etoposide (5 uM, 30 min)

B1: USP28 (immunoprecipitates of unstressed cells), Q96RU2 1-1077 (enzyme)
chain: MTAELQQDDAAGAADGHGSSCQMLLNQLREITGIQDPSFLHEALKASNGDITQAVSLLTDERVKEPSQDTVATEPSEVEGSAANKEVLAKVIDLTHDNKDDLQAAIALSLLESPKIQADGRDLNRMHEATSAETKRSKRKRCEVWGENPNPNDWRRVDGWPVGLKNVGNTCWFSAVIQSLFQLPEFRRLVLSYSLPQNVLENCRSHTEKRNIMFMQELQYLFALMMGSNRKFVDPSAALDLLKGAFRSSEEQQQDVSEFTHKLLDWLEDAFQLAVNVNSPRNKSENPMVQLFYGTFLTEGVREGKPFCNNETFGQYPLQVNGYRNLDECLEGAMVEGDVELLPSDHSVKYGQERWFTKLPPVLTFELSRFEFNQSLGQPEKIHNKLEFPQIIYMDRYMYRSKELIRNKRECIRKLKEEIKILQQKLERYVKYGSGPARFPLPDMLKYVIEFASTKPASESCPPESDTHMTLPLSSVHCSVSDQTSKESTSTESSSQDVESTFSSPEDSLPKSKPLTSSRSSMEMPSQPAPRTVTDEEINFVKTCLQRWRSEIEQDIQDLKTCIASTTQTIEQMYCDPLLRQVPYRLHAVLVHEGQANAGHYWAYIYNQPRQSWLKYNDISVTESSWEEVERDSYGGLRNVSAYCLMYINDKLPYFNAEAAPTESDQMSEVEALSVELKHYIQEDNWRFEQEVEEWEEEQSCKIPQMESSTNSSSQDYSTSQEPSVASSHGVRCLSSEHAVIVKEQTAQAIANTARAYEKSGVEAALSEVMLSPAMQGVILAIAKARQTFDRDGSEAGLIKAFHEEYSRLYQLAKETPTSHSDPRLQHVLVYFFQNEAPKRVVERTLLEQFADKNLSYDERSISIMKVAQAKLKEIGPDDMNMEEYKKWHEDYSLFRKVSVYLLTGLELYQKGKYQEALSYLVYAYQSNAALLMKGPRRGVKESVIALYRRKCLLELNAKAASLFETNDDHSVTEGINVMNELIIPCIHLIINNDISKDDLDAIEVMRNHWCSYLGQDIAENLQLCLGEFLPRLLDPSAEIIVLKEPPTIRPNSPYDLCSRFAAVMESIQGVSTVTVK
**Q.** How did the binding [1] turn out when B1 was run?
**A.** binds

B2: HA-tagged wildtype USP28 (USP28-WT), Q96RU2 1-1077 (enzyme)
chain: B1 chain
**Q.** B2 was tested. Which binding [2] did it give?
**A.** binds

**Q.** And the binding [3]?
**A.** binds
